The test relates to CD2F1 mice, L1210 leukemia ip, survival T/C. The test can be described thus: NCI In Vivo Anticancer Drug Screen. Data for tumor model L1210 Leukemia (intraperitoneal) in CD2F1 (CDF1) mice. As to conditions: higher T/C = longer survival. The procedure, abridged:
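Vehicle-treated tumor-bearing mice served as controls (C) for compound-treated mice (T). Reported figure is T divided by C.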

Where [1] appears, read: T/C endpoint: mean survival time, dose: 400.0 mg/kg/injection, schedule: Q04DX003 (ip), vehicle: saline.
Setting [2] is: T/C endpoint: mean survival time, dose: 200.0 mg/kg/injection, schedule: Q01DX009 (ip), vehicle: saline with Tween-80.
The mark [3] stands for this setting: T/C endpoint: mean survival time, dose: 400.0 mg/kg/injection, schedule: Q01DX001 (ip), vehicle: saline with Tween-80.
Setting [4] is: T/C endpoint: mean survival time, dose: 300.0 mg/kg/injection, schedule: Q01DX001 (ip), vehicle: saline.
Where [5] appears, read: T/C endpoint: mean survival time, dose: 100.0 mg/kg/injection, schedule: Q04DX003 (ip), vehicle: saline.
Setting [6] is: T/C endpoint: median survival time, dose: 50.0 mg/kg/injection, schedule: Q01DX009 (ip), vehicle: saline with Tween-80.
The mark [7] stands for this setting: T/C endpoint: median survival time, dose: 200.0 mg/kg/injection, schedule: Q01DX009 (ip), vehicle: saline with Tween-80.
Setting [8] is: T/C endpoint: mean survival time, dose: 200.0 mg/kg/injection, schedule: Q01DX001 (ip), vehicle: saline with Tween-80.
Setting [9] is: T/C endpoint: mean survival time, dose: 150.0 mg/kg/injection, schedule: Q01DX001 (ip), vehicle: saline.
Where [10] appears, read: T/C endpoint: mean survival time, dose: 10.0 mg/kg/injection, schedule: Q01DX009 (ip), vehicle: gum acacia.

The list does not hold the whole screen: it gathers tests that were run many times, whatever their T/C, doses with no T/C, and many T/C values between a quarter and a half above the control. Further doses and runs are listed elsewhere. T/C gives the treated animals as a percentage of the vehicle group. Some doses have a count of surviving animals in place of a T/C: the source files T/C as zero there, which appears to mark a toxic dose or a test without result, not a measured value. Some doses without a T/C left all or most animals alive at the check, yet need not have been tolerated: survival well below the control is almost never listed, so the zero probably covers shortened survival too. Survivors were counted at the toxicity check, usually on the fifth day, unless a day is given; later deaths do not show. Schedules are NCI's codes, taken here to give the interval after Q, in days (D) or hours (H), and the number of doses after X. Some doses were run more than once; their values stand side by side, smallest first. Some structures stand for samples that the source files as different forms (salt, stereo form or complex); doses refer to the form tested. Where survival is the endpoint, the PubChem record calls one and a half times the control and up active, and a quarter to a half above the control has no call in these data; cut-offs in other NCI protocols can differ. Some T/C values carry the count of animals alive at the toxicity check (mostly the fifth day); where none is given, no animal had died by that day.

As for `O=C1CSC(=S)N1/N=C/c1ccc(Cl)s1`, the survivor count by setting is: (T/C endpoint: mean survival time, dose: 150.0 mg/kg/injection, schedule: Q01DX001 (ip), vehicle: other) 3 of 6; (T/C endpoint: mean survival time, dose: 300.0 mg/kg/injection, schedule: Q01DX001 (ip), vehicle: other) 0 of 6.
Take `COc1nc(NC(C)C)nc(NC(C)C)n1`: the survivor count under setting [1] was 3 of 6.
Turning to `CN1CCN(C(=O)NCCCl)CC1`, the survivor count (T/C endpoint: mean survival time, dose: 20.0 mg/kg/injection, schedule: Q01DX009 (ip), vehicle: saline) is recorded as 2 of 6.
As to `O=C(O)c1ccc2cc(O)ccc2c1`, under “T/C endpoint: mean survival time, dose: 400.0 mg/kg/injection, schedule: Q01DX009 (ip), vehicle: saline”, the survivor count is given as 3 of 6.
On to `COC(=O)C1=NC=NC1=[N+]=[N-]`, for which the survivor count (T/C endpoint: mean survival time, dose: 40.0 mg/kg/injection, schedule: Q01DX001 (ip), vehicle: saline) was 0 of 6.
With `N#CC1C2CCC(O2)C1C(=O)OCc1ccccc1` (stereo not drawn), the survivor count runs as follows: (T/C endpoint: mean survival time, dose: 100.0 mg/kg/injection, schedule: Q04DX002 (ip), vehicle: saline with Tween-80) 3 of 3; (T/C endpoint: mean survival time, dose: 400.0 mg/kg/injection, schedule: Q04DX002 (ip), vehicle: saline with Tween-80) 2 of 3.
Take `CO[C@@]12[C@@H]3N[C@@H]3CN1C1=C(C(=O)C(N3CCOCC3)=C(C)C1=O)[C@@H]2COC(N)=O`: the T/C runs as follows: (T/C endpoint: mean survival time, dose: 1.5 mg/kg/injection, schedule: Q01DX001 (ip), vehicle: distilled water + Tween-80) 135 % of control; (T/C endpoint: mean survival time, dose: 3.0 mg/kg/injection, schedule: Q01DX001 (ip), vehicle: distilled water + Tween-80) 137 % of control; (T/C endpoint: mean survival time, dose: 6.0 mg/kg/injection, schedule: Q01DX001 (ip), vehicle: distilled water + Tween-80) 125 and 147 % of control; (T/C endpoint: mean survival time, dose: 12.0 mg/kg/injection, schedule: Q01DX001 (ip), vehicle: distilled water + Tween-80) 147 % of control. Besides, for the setting “T/C endpoint: mean survival time, dose: 24.0 mg/kg/injection, schedule: Q01DX001 (ip), vehicle: distilled water + Tween-80”, the survivor count is 5 of 6 and 6 of 6.
Regarding `CC1OC(OC2CC(O)(C(=O)CO)Cc3c(O)c4c(c(O)c32)C(=O)c2ccccc2C4=O)CC(N)C1O` (stereo not drawn), the T/C by setting is: (T/C endpoint: mean survival time, dose: 0.06 mg/kg/injection, schedule: Q01DX009 (ip), vehicle: water) 125 and 131 % of control; (T/C endpoint: mean survival time, dose: 0.13 mg/kg/injection, schedule: Q01DX009 (ip), vehicle: water) 142 % of control; (T/C endpoint: mean survival time, dose: 0.25 mg/kg/injection, schedule: Q01DX009 (ip), vehicle: water) 145 % of control. Further, the survivor count (T/C endpoint: mean survival time, dose: 1.0 mg/kg/injection, schedule: Q01DX009 (ip), vehicle: water) is listed as 5 of 6.
On to `O=S(=O)(Cc1ccc(CS(=O)(=O)c2ccc(Cl)cc2)cc1)c1ccc(Cl)cc1`, for which the survivor count is on record as 6 of 6 (T/C endpoint: mean survival time, dose: 100.0 mg/kg/injection, schedule: Q01DX009 (ip), vehicle: saline with Tween-80) and 6 of 6 under setting [2].
Take `COC(=O)C1(C)CCCC2(C)C1CCC13C2CC1C1(C(C)C)OC31` (stereo not drawn): where the note is “T/C endpoint: mean survival time, dose: 400.0 mg/kg/injection, schedule: Q04DX003 (ip), vehicle: saline with Tween-80”, the survivor count is listed as 6 of 6.
For the compound `O=S(=O)(c1ccc(Cl)cc1)N(Cl)Cl`, the survivor count under setting [3] was 0 of 6.
As to `C#CCOCC1CO1` (stereo not drawn), the survivor count under setting [4] was 0 of 6.
Turning to `C#CCOCCC(C(C)=O)C(=O)OCC` (stereo not drawn), the survivor count (T/C endpoint: mean survival time, dose: 400.0 mg/kg/injection, schedule: Q01DX001 (ip), vehicle: saline) was 1 of 6.
`O/N=C1\CCCCC\C1=N/O.O/N=C1\CCCCC\C1=N/O.[Pt]`: the survivor count (T/C endpoint: mean survival time, dose: 100.0 mg/kg/injection, schedule: Q04DX003 (ip), vehicle: dextrose) is on record as 3 of 6 and the survivor count (T/C endpoint: mean survival time, dose: 400.0 mg/kg/injection, schedule: Q04DX003 (ip), vehicle: dextrose) is listed as 5 of 6.
As for `COc1cc2c(cc1OC)C(N)CCC2` (stereo not drawn), the survivor count (T/C endpoint: mean survival time, dose: 200.0 mg/kg/injection, schedule: Q01DX009 (ip), vehicle: water) is on record as 0 of 6.
Turning to `CCCCCCCCCCCCOC(=O)C[n+]1cccc(C(=O)NC)c1`, the survivor count under setting [5] is listed as 1 of 6; the survivor count (T/C endpoint: mean survival time, dose: 200.0 mg/kg/injection, schedule: Q04DX003 (ip), vehicle: saline) is 0 of 6; the survivor count under setting [1] is reported as 0 of 6.
As for `COc1ccc(NC(=O)Nc2ccccc2C)c(Cl)c1`, the survivor count (T/C endpoint: mean survival time, dose: 200.0 mg/kg/injection, schedule: Q04DX002 (ip), vehicle: saline with Tween-80) is listed as 3 of 3.
As to `CC(C)C(NC(=O)C(NC(=O)C(CCCN=C(N)N)NC(=O)C(N)CCCCN)C(C)C)C(N)=O` (stereo not drawn), the survivor count (T/C endpoint: mean survival time, dose: 400.0 mg/kg/injection, schedule: Q01DX009 (ip), vehicle: water) was 3 of 6.
With `c1ccc(OCC2CO2)c(OCC2CO2)c1` (stereo not drawn), the T/C under setting [6] is 127 % of control; the T/C (T/C endpoint: median survival time, dose: 100.0 mg/kg/injection, schedule: Q01DX009 (ip), vehicle: saline with Tween-80, evaluated on day 20) was 127 % of control; the T/C (T/C endpoint: median survival time, dose: 100.0 mg/kg/injection, schedule: Q01DX009 (ip), vehicle: saline with Tween-80, evaluated on day 30) is 128 and 134 % of control; the T/C under setting [7] was 143 % of control. The survivor count (T/C endpoint: median survival time, dose: 400.0 mg/kg/injection, schedule: Q01DX009 (ip), vehicle: saline with Tween-80) is 2 of 6 and 3 of 6.
`Cn1cc(NC(=O)c2cc(NC(=O)c3cc(NC=O)cn3C)cn2C)cc1C(=O)NCCC(=N)N`: the survivor count is given as 3 of 6 (T/C endpoint: mean survival time, dose: 400.0 mg/kg/injection, schedule: Q04DX003 (ip), vehicle: alcohol) and 2 of 6 (T/C endpoint: median survival time, dose: 200.0 mg/kg/injection, schedule: Q01DX009 (ip), vehicle: water).
On to `C1CC(N2CC2)CCC1N1CC1` (stereo not drawn), for which the T/C (T/C endpoint: mean survival time, dose: 4.0 mg/kg/injection, schedule: Q04DX003 (ip), vehicle: saline) was 148 % of control. Moreover, the survivor count is, setting by setting: (T/C endpoint: mean survival time, dose: 30.0 mg/kg/injection, schedule: Q04DX003 (ip), vehicle: saline) 5 of 10; (T/C endpoint: mean survival time, dose: 44.0 mg/kg/injection, schedule: Q04DX003 (ip), vehicle: saline) 0 of 10; (T/C endpoint: mean survival time, dose: 67.0 mg/kg/injection, schedule: Q04DX003 (ip), vehicle: saline) 0 of 10; under setting [5], 0 of 10; (T/C endpoint: mean survival time, dose: 150.0 mg/kg/injection, schedule: Q04DX003 (ip), vehicle: saline) 0 of 10.
For the compound `NNC(=O)C1CCN1C(c1ccccc1)c1ccccc1` (stereo not drawn), the survivor count runs as follows: under setting [8], 0 of 3; under setting [3], 0 of 3.
For the compound `Cc1cc2c(=O)[nH]cnc2[nH]1`, the survivor count (T/C endpoint: median survival time, dose: 200.0 mg/kg/injection, schedule: Q01DX005 (ip), vehicle: saline) was 1 of 6.
For `CC(C)(C)OC(=O)NC(CSC(c1ccccc1)(c1ccccc1)c1ccccc1)C(=O)O` (stereo not drawn), the survivor count is reported as 0 of 6 under setting [9] and 0 of 6 under setting [4].
Take `Nc1nc2ccc(NCc3ccc(C(=O)NC(CCC(=O)O)C(=O)O)cc3)cc2c(=O)[nH]1` (stereo not drawn): under setting [6], the T/C is 140 and 145 % of control. For the same compound, the survivor count under setting [7] was 0 of 6.
For `CC[CH2][Sn]([Cl])([Cl])[CH2]CC.Oc1ccccc1C=NCCN=Cc1ccccc1O`, the T/C under setting [10] is 128 % of control [4 of 6 alive]. The survivor count under setting [10] is 3 of 6; the survivor count (T/C endpoint: mean survival time, dose: 20.0 mg/kg/injection, schedule: Q01DX009 (ip), vehicle: gum acacia) was 0 of 6; the survivor count (T/C endpoint: mean survival time, dose: 100.0 mg/kg/injection, schedule: Q01DX001 (ip), vehicle: saline with Tween-80) was 0 of 6; the survivor count under setting [8] is 0 of 6; the survivor count under setting [3] was 0 of 6.
Consider `O=c1c2ccccc2on1-c1ncnc2nc[nH]c12`, for which the survivor count (T/C endpoint: mean survival time, dose: 200.0 mg/kg/injection, schedule: Q01DX005 (ip), vehicle: other) was 3 of 5.
Turning to `CC(=O)N(C1=CC(=O)c2ccccc2C1=O)c1ccc(C)cc1`, the survivor count under setting [4] is reported as 2 of 6.
As for `O=C(Nc1ccccc1O)/C(Cl)=C/Cl`, the survivor count by setting is: under setting [2], 5 of 6; (T/C endpoint: mean survival time, dose: 400.0 mg/kg/injection, schedule: Q01DX009 (ip), vehicle: saline with Tween-80) 3 of 6.
Turning to `c1ccc2c(c1)sc1[n+]2CCS1`, the survivor count under setting [9] is 0 of 6 and the survivor count under setting [4] is given as 0 of 6.
